Laboratory results published in patent US10307463B2 (priority 2003, dated 2019).

Format: physicochemical
Conditions: on average, in all admixtures, for 60 days

Question: With `CN1CC[C@]23c4c5ccc(O)c4O[C@H]2[C@@H](O)C=C[C@H]3[C@H]1C5.O=S(=O)(O)O` [morphine sulfate] as the molecule, how does the “concentration of morphine sulfate, of initial concentration” value read?
Answer: The value was “above 90%”.
